{"source": "paper PMC10544575", "about": "“Inhibitory mechanism of vortioxetine on CYP450 enzymes in human and rat liver microsomes” (Frontiers in Pharmacology, 2023)", "origin": "cited, not measured here", "test_system": "vortioxetine metabolism", "conditions": "previous study; ref Xu et al., 2021; cited from earlier work"}
{"smiles": "CCCNCC(O)COc1ccccc1C(=O)CCc1ccccc1", "note": "(stereo not shown) [propafenone]", "values": [{"measurement": "effect on vortioxetine metabolism", "value": "inhibitory effect"}]}
